These are yes or no findings as the source states them, for the method shown.
Assays:
[1] = molecular target: PAK1 ΔN, unphosphorylated (human) (UniProt Q13153); experiment: SEC + AUC; Stokes radius from analytical SEC combined with the sedimentation coefficient from AUC-SV in the Svedberg equation; both purified
[2] = molecular target: PAK1 ΔN, unphosphorylated (human) (UniProt Q13153); experiment: AUC; sedimentation velocity (AUC-SV), 4 °C, 50 mM HEPES pH 7.5, 150 mM NaCl, 0.5–1.0 mg/ml, 40,000 rpm, c(s) analysis in SEDFIT; both purified
[3] = molecular target: PAK1 ΔN, unphosphorylated (human) (UniProt Q13153); experiment: HPLC-SAXS; SEC-coupled small angle X-ray scattering, Shodex 403 column, 15 °C, 25 mM HEPES pH 7.5, 150–200 mM NaCl, 0.5 mM TCEP, 2–2.5% glycerol, 1% sucrose; samples 5–32 mg/ml; mass by the QR method; both purified
[4] = molecular target: PAK3 ΔN, unphosphorylated (human) (UniProt O75914); experiment: SEC + AUC; Stokes radius from analytical SEC combined with the sedimentation coefficient from AUC-SV in the Svedberg equation; both purified
[5] = molecular target: PAK3 ΔN, unphosphorylated (human) (UniProt O75914); experiment: AUC; sedimentation velocity (AUC-SV), 4 °C, 50 mM HEPES pH 7.5, 150 mM NaCl, 0.5–1.0 mg/ml, 40,000 rpm, c(s) analysis in SEDFIT; both purified
[6] = molecular target: PAK3 ΔN, unphosphorylated (human) (UniProt O75914); experiment: HPLC-SAXS; SEC-coupled small angle X-ray scattering, Shodex 403 column, 15 °C, 25 mM HEPES pH 7.5, 150–200 mM NaCl, 0.5 mM TCEP, 2–2.5% glycerol, 1% sucrose; samples 5–32 mg/ml; mass by the QR method; both purified
[7] = molecular target: full-length PAK3, auto-phosphorylated (human) (UniProt O75914); experiment: as above

Amino acid sequences for entries named in this document (tags omitted). A change or cut given only in a name is not applied to a line headed by its entry. Chains listed by the source or under a name are the forms on record and can include a tag or linker. Residues count along the entry.
UniProt Q13153, residues 70-545: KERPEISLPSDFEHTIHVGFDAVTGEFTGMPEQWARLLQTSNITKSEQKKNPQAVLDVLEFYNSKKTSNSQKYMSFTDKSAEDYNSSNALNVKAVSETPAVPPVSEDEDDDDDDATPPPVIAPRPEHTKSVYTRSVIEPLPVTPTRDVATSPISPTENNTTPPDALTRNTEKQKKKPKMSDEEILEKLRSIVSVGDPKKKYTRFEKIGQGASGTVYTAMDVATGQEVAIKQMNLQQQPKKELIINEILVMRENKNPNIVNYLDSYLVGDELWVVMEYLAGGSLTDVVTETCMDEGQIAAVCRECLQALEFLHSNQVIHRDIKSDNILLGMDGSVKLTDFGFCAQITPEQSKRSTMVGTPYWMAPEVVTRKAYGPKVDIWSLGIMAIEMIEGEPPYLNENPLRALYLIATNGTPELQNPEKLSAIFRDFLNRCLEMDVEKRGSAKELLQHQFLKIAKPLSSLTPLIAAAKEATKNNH
PAK3 ΔN, unphosphorylated (O75914-2, form named): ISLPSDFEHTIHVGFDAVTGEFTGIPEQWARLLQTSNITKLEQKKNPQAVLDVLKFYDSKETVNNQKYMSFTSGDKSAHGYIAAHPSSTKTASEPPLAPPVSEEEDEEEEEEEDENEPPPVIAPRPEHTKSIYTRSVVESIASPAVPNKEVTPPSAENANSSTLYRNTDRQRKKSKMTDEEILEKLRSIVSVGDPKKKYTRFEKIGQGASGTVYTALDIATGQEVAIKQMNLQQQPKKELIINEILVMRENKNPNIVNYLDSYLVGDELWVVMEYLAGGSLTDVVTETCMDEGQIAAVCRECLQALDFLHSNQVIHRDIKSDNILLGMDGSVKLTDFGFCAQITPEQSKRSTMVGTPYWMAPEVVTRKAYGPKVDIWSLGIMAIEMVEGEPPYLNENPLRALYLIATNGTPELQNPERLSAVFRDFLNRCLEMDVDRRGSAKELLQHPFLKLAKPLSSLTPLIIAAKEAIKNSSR
full-length PAK3, auto-phosphorylated (O75914-2, form named): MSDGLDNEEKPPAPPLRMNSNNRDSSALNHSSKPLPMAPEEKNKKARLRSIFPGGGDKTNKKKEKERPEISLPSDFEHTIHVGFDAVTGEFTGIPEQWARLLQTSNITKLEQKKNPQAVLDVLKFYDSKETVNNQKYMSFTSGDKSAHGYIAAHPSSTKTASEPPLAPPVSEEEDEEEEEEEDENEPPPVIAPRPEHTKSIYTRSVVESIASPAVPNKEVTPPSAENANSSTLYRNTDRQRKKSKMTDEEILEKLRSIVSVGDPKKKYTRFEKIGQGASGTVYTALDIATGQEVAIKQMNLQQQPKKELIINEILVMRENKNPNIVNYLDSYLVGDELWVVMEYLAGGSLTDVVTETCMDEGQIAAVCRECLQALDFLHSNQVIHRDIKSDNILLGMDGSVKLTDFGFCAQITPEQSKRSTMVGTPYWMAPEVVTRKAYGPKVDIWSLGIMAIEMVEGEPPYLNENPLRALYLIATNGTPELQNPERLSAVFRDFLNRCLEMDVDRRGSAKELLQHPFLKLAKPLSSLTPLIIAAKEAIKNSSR

Question: Which binding [1] does the source give for “PAK1 ΔN, unphosphorylated (from UniProt Q13153 70-545) (domain or fragment)” here?
Answer: no binding

Question: And the binding [2]?
Answer: no binding (tested: 0.5–1.0 mg/ml)

Question: What about the binding [3] of the same substance?
Answer: no binding (tested: 5–32 mg/ml)

Question: “PAK3 ΔN, unphosphorylated (from UniProt O75914-2 70-544) (domain or fragment)” was tested. Which binding [4] did it give?
Answer: no binding

Question: What about the binding [5] of the same substance?
Answer: no binding (tested: 0.5–1.0 mg/ml)

Question: And the binding [6]?
Answer: no binding (tested: 5–32 mg/ml)

Question: For “full-length PAK3, auto-phosphorylated (from UniProt O75914-2 1-544) (enzyme)”, which binding [7] is on record?
Answer: no binding (tested: 5–32 mg/ml)
